Laboratory results reported in PubChem BioAssay AID602254 (Broad Institute, 2012).
Among all 1,000 compounds or so, fewer than 10 were called active.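 The calls were made as follows: active = fitted half-maximal concentration no higher than twice the top valid tested dose, with signal falling; inconclusive = flat curve with 30 to 70% inhibition, or poor fit; inactive = the rest.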 The list shows a part of the results. Measured potencies and affinities stand elsewhere.

target: Golgi-associated PDZ and coiled-coil motif-containing protein (Homo sapiens) (UniProt Q9HD26); test: blockers of CAL PDZ–TMR peptide complex – biochemical, fluorescence polarization, untagged CAL PDZ, cherry-pick, set 2, dose response (AID 602254); conditions: Purified CAL PDZ; at 60 µM (top of the series);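 also: 0% = DMSO neutral control and -100% = unlabeled peptide PRC23 positive control; more negative means stronger blocking of peptide binding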

Activity change, negative = inhibition, inactive:
Cc1ccc(CNC(=O)C(c2ccccc2)c2ccccc2)cc1 -2.21%, O=C(NCCN1CCN(C(=O)c2ccccc2Cl)CC1)C(=O)NCc1ccccc1 1.78%, CNS(=O)(=O)c1cccc(C(=O)OCC(=O)c2ccc3c(c2)OCCO3)c1 1.8%, Cc1ccc(NC(=O)CN(C)C(=O)COc2cccc3ccc(C)nc23)cc1 -0.235%, COc1ccc(N(CC(=O)N2CCCCCC2)S(=O)(=O)c2ccc(OC)c(OC)c2)cc1 -1.11%, Cc1ccc(N2CCN(S(=O)(=O)c3ccc(-n4cnnn4)cc3)CC2)c(C)c1 -0.268%, C=CCNc1cnn(-c2ccc(C)cc2)c(=O)c1Cl 1.23%, CCOc1ccc(NC(=O)CN2CCN(CC(=O)Nc3ccccc3OC)CC2)cc1 -1.63%, COc1ccc(CCC(=O)NNC(=O)c2ccccn2)cc1OC -1.4%, O=C(Nc1ccccc1C(=O)O)c1cccc(N2C(=O)c3ccccc3C2=O)c1 3.93%, NC(=O)COC(=O)c1ccc(NS(=O)(=O)c2ccc3c(c2)OCCO3)cc1 -5.43%, Nc1nonc1C(=O)NCCNCc1ccccc1OCc1ccccc1F 2.24%, CC(=O)c1sc(NC(=O)CCCc2nc3ccccc3c(=O)[nH]2)nc1-c1ccccc1 4.64%, Oc1ccccc1-c1nnc(SCCN2CCOCC2)n1Cc1ccccc1 3.38%, Cc1ccc(S(=O)(=O)NC(CC(C)C)C(=O)N2CC(C)OC(C)C2)cc1 (stereo not given) 0.893%, CC1CN(S(=O)(=O)c2ccc(CN3C(=O)c4cccnc4C3=O)s2)c2ccccc2O1 (stereo not given) -1.12%, O=C(NCC1CCCN(Cc2cccc(F)c2)C1)c1cccc2ccccc12 (stereo not given) -1.19%, Cc1cc(C(=O)COc2ccccc2Cl)c(C)n1-c1ccc2c(c1)OCO2 2.31%, Cc1ccc(C(=O)Nc2cccc(C(=O)N3CCOCC3)c2)cc1Cl 4.43%, O=C(O)CCCC(=O)Nc1ccc(N2CCCC2)cc1 0.225%, CCCCNC(=O)Nc1ccccc1CC 7.33%, CN1C(C)(C)CC(=NOC(=O)c2ccccc2)CC1(C)C -1.53%, O=C(CCCN1C(=O)c2ccccc2C1=O)NCCCn1ccnc1 -2.33%, O=C(O)c1ccc(/C=N/NC(=O)c2cc3ccccc3cc2O)cc1 18.7%, COc1ccccc1NC(=O)CN1CCCCCC1 4.63%, CC(=O)Nc1sc(NC(=O)c2ccc(C)cc2)nc1-c1cccs1 -1.3%, Cc1ccc(C(=O)N[C@H](C(=O)OCc2nnc(-c3ccccc3)o2)C(C)C)cc1 -6.77%, COc1cc(/C=N/Nc2nc3ccccc3s2)ccc1OC(=O)c1ccccc1F 0.818%, Cc1cc(C(F)(F)F)n2ncc(-c3ccccc3)c2n1 -0.134%, NC(=O)NC(CC(=O)NNC(=O)c1ccccn1)c1ccccc1Cl (stereo not given) 1.01%, CCOc1ccc(NS(=O)(=O)c2ccc(NC(=O)c3ccccc3C(=O)O)cc2)cc1 0.784%, COc1ccc(C)cc1NC(=O)Cn1c(=O)oc2ccccc21 -1.95%, O=C(Cc1c(C(=O)O)[nH]c2ccccc12)NCCN1CCN(c2cccc(Cl)c2)CC1 -1.9%, COc1ccc(OCC(=O)Nc2ccc3c(c2)nc(CN2CCCC2)n3C)cc1 2.55%, COc1ccc(/C=N/NC(=O)c2ccc(CN3C(=O)c4cccc5cccc3c45)cc2)cc1O 2.74%, CNC(=O)c1cn(-c2ccc(Cl)cc2)c(=O)c2ccccc12 1.27%, CC(C)[C@H](NC(=O)c1ccc(Br)cc1)C(=O)NC1CCCCC1 -4.06%, COc1ccc(CN2CCNC(=O)C2CC(=O)NC2CCCCCCC2)cc1OC (stereo not given) 1.79%, COc1ccc(NC(=O)Nc2c[nH]c(=O)[nH]c2=O)cc1 -3.5%, NS(=O)(=O)c1ccc(CCNC(=O)COC(=O)C2CCC2)cc1 1.83%, OC(CNCCc1ccc(Cl)cc1Cl)COc1ccccc1 (stereo not given) 0.253%, C=CCNC(=S)NCc1ccccc1OC -1.48%, CSc1ccccc1C(=O)Nc1ccc2c(c1)CCC2 1.61%, CN(C)CCOC(=O)c1sc2ccccc2c1Cl 1.67%, O=C(NCc1ccccn1)c1cn(Cc2ccccc2)nn1 -3.03%, CN1CCN(CC(=O)NN2CC(=O)N(c3ccc(F)cc3)CC2=O)CC1 -1.12%, OCC1(Cc2ccc(Cl)cc2)CCN(Cc2ccc(F)c(F)c2)CC1 1.5%, O=C(c1ccc2nccnc2c1)N1CCCC(Nc2ccc(F)c(F)c2)C1 (stereo not given) -1.05%, O=C(c1ccc2c(c1)OCO2)C1CCCN(Cc2cc(F)ccc2-n2cccn2)C1 (stereo not given) -4.9%, COC(=O)c1ccc(OCc2nn[nH]n2)cc1 1.45%, Fc1ccc(Cn2cc(C(=S)N3CCOCC3)c3ccccc32)cc1 0.943%, O=S(=O)(c1ccccc1)N(CC(O)COc1ccccc1)c1ccccc1 (stereo not given) 0.464%, N#CCNC(=O)c1nn2c(C(F)(F)F)cc(-c3ccccc3)nc2c1Br 0.777%, CCOC(=O)c1ccc(NC(=O)c2ccc(NC(=O)C3CCCO3)cc2)cc1 (stereo not given) 1.45%, Cc1ccc(-c2nn(C)c(=O)c3ccccc23)cc1CN1CCCCC1 1.08%, CC1Cc2ccccc2N1C(=O)COC(=O)c1cccc(Br)c1 (stereo not given) -1.16%, CCC(C)(C(=O)NC1CCCCC1)N(C)C(=O)c1ccccn1 (stereo not given) 0.953%, COc1ccc(Nc2ncnc3sc(-c4ccccc4)cc23)c(OC)c1 0.882%, CCOc1ncccc1C(=O)OCC(=O)N(CC(C)C)C1CCS(=O)(=O)C1 (stereo not given) 0.111%, Cc1cc(N2CCN(c3ccccc3)CC2)nc2ccccc12 -0.474%, CC1CN(C(=S)Nc2ccccc2)N(c2ccccc2)C1 (stereo not given) 2.31%, COCCCNC(=S)N/N=C/c1ccc(OC)c(Br)c1 -1.02%, CC(C)(C(=O)Nc1nccs1)c1ccccc1 0.362%, CC(C)c1cc(C(=O)N2CCCC(N3CCN(c4ccc(F)cc4)CC3)C2)no1 (stereo not given) -2.37%, COc1ccc(CCNC(=O)c2cc3c(F)cccc3s2)cc1OC 3.5%, COc1cc(C(=O)NCC2CCCCC2)cc(OC)c1OC -1.25%, CCN(Cc1ccc(N(C)C)cc1)C(C)C(=O)Nc1ccc(S(=O)(=O)N2CCCC2)cc1 (stereo not given) -11.2%, COc1ccc(CN2C(=O)c3cccnc3C2=O)cc1S(=O)(=O)N(C)c1cccc(C)c1 -0.429%, CN1CCC(OC(=O)COc2ccc(F)cc2)CC1 -12.9%, Cc1cccc(NC(=O)c2ccccc2SCc2ccc(F)cc2)n1 1.74%, CCOc1ccc(NC(=O)CCN2CCN(S(=O)(=O)c3ccc(F)cc3)CC2)cc1 -0.08%, Fc1ccc(Cn2nnc3ccccc32)cc1 1.58%, COc1ccc2[nH]c(=O)c(CN(C(=O)C3CCCO3)c3ccc(C)c(C)c3)cc2c1 (stereo not given) 1.97%, CCC1CCC2(CC1)NC(=O)N(CC(=O)Nc1ccc(OC)c(Cl)c1)C2=O (stereo not given) -11%, CCC(C)NC(=S)Nc1ccccc1 (stereo not given) 1.51%, Cc1ccc(OCC(=O)Nc2ccc(C(=O)O)cc2NC(=O)COc2ccc(C)c(C)c2)cc1C 3.68%, O=C(C1CC(=O)N(c2ccc3c(c2)OCCO3)C1)N1CCN(S(=O)(=O)c2ccc(F)cc2)CC1 (stereo not given) -2.13%, Cc1onc(-c2c(Cl)cccc2Cl)c1C(=O)N1CCN(c2ncccn2)CC1 2.53%, CCN(CC)CCNC(=O)C(=O)Nc1ccc(C(=O)OC)cc1 0.084%, CCN(c1ccccc1)S(=O)(=O)c1ccc(C(=O)N2CCN(c3ccccc3)CC2)cc1 -4.12%, CN(Cc1cnccn1)Cc1nc(Cc2ccccc2F)no1 0.187%, O=S(=O)(NC1CCCC1)c1ccc(-n2cnnn2)cc1 0.658%, Brc1ccc(-n2cnc(-c3ccccc3)c2)cc1 -2.22%, CCN1C(=O)c2ccc(C(=O)Nc3ncc(C)s3)cc2C1=O -0.423%, N#CCCN(Cc1ccccc1)S(=O)(=O)c1cccs1 -4.2%, Cc1nnsc1C(=O)Nc1cccc(Cl)c1 1.76%, Cc1cc(CNC(=O)C2CCC(=O)N(CCc3ccc(Cl)cc3)C2)no1 (stereo not given) 1.48%, COC(=O)c1sccc1NC(=O)CC1NCCNC1=O (stereo not given) 5.3%, Cc1ccc(S(=O)(=O)Nc2cccc(-n3cnnn3)c2)cc1 1.15%, CC(C)CNC(=O)c1cccc(NC(=O)c2ccccc2-c2ccccc2C(=O)O)c1 7.77%, O=C(N[C@@H](Cc1c[nH]c2ccccc12)C(=O)O)C1CCN(S(=O)(=O)c2cccs2)CC1 -1.24%, COc1cc(OC)cc(C(=O)OC(C)C(=O)NC2CCCc3ccccc32)c1 (stereo not given) -0.23%, O=C(CCCN1C(=O)/C(=C\c2ccccc2)SC1=S)Nc1ccc(O)cc1C(=O)O 4.36%, Cc1cc(F)ccc1NC(=O)CCc1c(C)nn(-c2ccc(N3CCCCC3)nn2)c1C 1.15%, CC(C)Nc1cc(C(C)(C)C)nc2c(-c3ccccc3)cnn12 -5.56%
